Source: paper PMC5996148
The list shows a part of the results. For some assays here: The exact form of the protein is not confirmed.

What was measured:
Experiment in all cases: protein microarray (ProtoArray v5.0), streptavidin-Alexa Fluor 647
Settings in all cases: 3'-biotin; 20 mM Tris (pH 7.5), 5 mM MgCl2, 100 mM KCl, 0.1% Tween-20, A/T-rich and random oligonucleotide blockers; temperature not stated; high values mean tight binding
[1] = tested on: C16orf30 (human)
[2] = tested on: C16orf58 (human)
[3] = biological target: T1, C16orf67 (UniProt Q96NS8)
T1 sequence: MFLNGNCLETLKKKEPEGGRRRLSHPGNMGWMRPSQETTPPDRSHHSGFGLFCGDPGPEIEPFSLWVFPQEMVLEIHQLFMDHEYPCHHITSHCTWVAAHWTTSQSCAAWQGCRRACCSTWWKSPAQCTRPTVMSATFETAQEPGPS

[4] = tested on: C16orf74 (human)
[5] = tested on: C17orf42 (human)
[6] = tested on: C17orf46 (human)
[7] = tested on: C17orf48 (human)
[8] = tested on: C17orf49 (human)
[9] = tested on: C17orf56 (human)
[10] = tested on: C18orf10 (human)
[11] = tested on: C19orf12 (human)
[12] = tested on: C19orf39 (human)
[13] = tested on: C1QC (human)
[14] = tested on: C1orf109 (human)
[15] = tested on: C1orf119 (human)
[16] = tested on: C1orf162 (human)
[17] = tested on: C1orf2 (human)
[18] = tested on: C1orf213 (human)
[19] = tested on: C1orf38 (human)
[20] = tested on: C1orf51 (human)

For “GGGAGGCTGAGGCAGG [G4-1 biotinylated (PQS2)]”, the binding signal [1] was -0.344 z-score, the binding signal [2] was -0.288 z-score and the binding signal [3] was -0.312 z-score. It also gave a binding signal [4] of -0.344 z-score, a binding signal [5] of -0.271 z-score and a binding signal [6] of -0.316 z-score. The binding signal [7] was -0.289 z-score, the binding signal [8] was -0.293 z-score and the binding signal [9] was -0.344 z-score. The binding signal [10] was -0.318 z-score, the binding signal [11] was -0.355 z-score and the binding signal [12] was -0.318 z-score. For the same sequence, the binding signal [13] was -0.306 z-score, the binding signal [14] was -0.318 z-score and the binding signal [15] was -0.324 z-score. The binding signal [16] was -0.334 z-score, the binding signal [17] was -0.304 z-score and the binding signal [18] was -0.306 z-score. For the same sequence, the binding signal [19] was -0.328 z-score and the binding signal [20] was -0.329 z-score.
